The values below come from US20230405004A1, “COMBINATION THERAPY OF DONEPEZIL AND TADALAFIL FOR THE TREATMENT OF ALZHEIMER'S DISEASE OR COGNITIVE IMPAIRMENT” (NEURORIVE INC, priority 2020, published 2023).

SMILES strings stand for the structures.

This experiment deals with mouse brain slice treated with 3 μM amyloid beta. The settings on record: amyloid beta 3 μM + donepezil 100 nM alone.

Regarding `COc1cc2c(cc1OC)C(=O)C(CC1CCN(Cc3ccccc3)CC1)C2` (stereo not shown) [Donepezil, donepezil], the “Synaptic long-term potentiation (Increase or decrease compared to Amyloid beta group)” value is 5.71%.
